PubChem BioAssay AID743454 | Peter MacCallum Cancer Centre, 2014
The deposit covers about 18,000 reagents; shown is an unselected part. 450 of them (2.5%) were called active. 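Single biological run; no consistent viability z cut-off exists, so the class columns, not z-scores, define the calls.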 Unmarked entries are inactive.

- Purpose: 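Knock-downs lowering viability or raising caspase 3/7 activity in vorinostat-treated resistant cells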 (primary screen)
- Cells: human HCT116-VR colon cancer cells, selected for vorinostat resistance
- Reagents: siRNA pool against human genes, 40 nM siRNA pool
- Duration: vorinostat for 24 h, read-out about 72 h after transfection
- Conditions: vorinostat at 2.5 µM final
- Read-out: 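Cell viability by CellTiter-Fluor and caspase 3/7 activity by luminescence, each scaled to mock wells per plate, duplicates averaged, then robust z-scored over all plates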
- Direction: viability robust z-score: higher = more viable cells than screen typical; caspase robust z-score: higher = more caspase 3/7 activity than screen typical
- Call rule: 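a knock-down is a hit when classed RV1 or RV2 for lowered viability, or CA1 or CA2 for caspase activation; those lethal without drug were dropped; hits were retested singly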

| target gene | viability hit class | caspase hit class | viability robust z-score | caspase robust z-score |
| --- | --- | --- | --- | --- |
| ZNF180 | no change | no change | -0.08 | 0.08 |
| SORT1 | no change | no change | -1.27 | 1.17 |
| GLMN | no change | no change | -0.09 | -0.74 |
| PGLS | no change | no change | 0.12 | 2.88 |
| NUP205 | RV2 (reduced viability) (active) | no change | -3.88 | 3.34 |
| PCDHB6 | no change | no change | 0.83 | -0.72 |
| RNF166 | no change | no change | 0.36 | 0.64 |
| SLC12A7 | no change | no change | -0.86 | -0.52 |
| LXN | no change | no change | -1.35 | -0.14 |
| SDCBP | no change | no change | 0.36 | -0.79 |
| SNX20 | no change | no change | 0.08 | -0.6 |
| RIDA | no change | no change | -0.07 | -0.62 |
| NNT | no change | no change | -2.06 | 2.23 |
| QSOX1 | no change (active) | CA2 (caspase activation) | -2.59 | 6.33 |
| MSLNL | no change | no change | 0.62 | 1.02 |
| SCGB3A2 | no change | no change | -0.28 | -0.52 |
| TRRAP | no change | no change | -0.4 | 1.1 |
| COQ5 | no change | no change | 0.28 | 0.92 |
| TRAPPC5 | no change | no change | -0.81 | -0.3 |
| FBH1 | no change | no change | -0.92 | 4.5 |
| P3H1 | no change | no change | -2.24 | -0.9 |
| DIO2 | no change | no change | -0.84 | -1.26 |
| PNPLA8 | no change | no change | 0.4 | -0.04 |
| AKR7A3 | no change | no change | -1.45 | 2.44 |
| PTBP2 | no change | no change | -0.12 | 1.04 |
| CDK13 | no change | no change | 1.32 | -0.32 |
| MPZL1 | no change | no change | 0.04 | 1.39 |
| NFX1 | no change | no change | -0.2 | -1.03 |
| OR52I2 | no change | no change | 0.34 | -0.52 |
| OR6C74 | no change | no change | 1 | -1.08 |
| HOXC10 | no change | no change | 0.6 | -0.57 |

Sorted by “viability robust z-score” (low to high): some entries from above
| target gene | viability hit class | caspase hit class | viability robust z-score | caspase robust z-score |
| --- | --- | --- | --- | --- |
| AKR7A3 | no change | no change | -1.45 | 2.44 |
| DIO2 | no change | no change | -0.84 | -1.26 |
| NFX1 | no change | no change | -0.2 | -1.03 |
| PTBP2 | no change | no change | -0.12 | 1.04 |
| MPZL1 | no change | no change | 0.04 | 1.39 |
| OR52I2 | no change | no change | 0.34 | -0.52 |
| PNPLA8 | no change | no change | 0.4 | -0.04 |
| CDK13 | no change | no change | 1.32 | -0.32 |

Continued.
| target gene | viability hit class | caspase hit class | viability robust z-score | caspase robust z-score |
| --- | --- | --- | --- | --- |
| SLC34A1 | no change | no change | 0.86 | -0.26 |
| ZBTB33 | no change | no change | -1.27 | 1.32 |
| GGT6 | no change | no change | -0.42 | 0.12 |
| THUMPD1 | no change | no change | -0.3 | -0.06 |
| PNP | no change | no change | 0.07 | -1.07 |
| XYLB | no change | no change | 1.58 | -0.68 |
| FGL1 | no change | no change | -0.74 | 0.7 |
| CST11 | no change | no change | -0.26 | -0.28 |
| BNIPL | no change | no change | -0.44 | -0.16 |
| PRXL2A | no change | no change | 1.17 | -0.66 |
| USP14 | no change | no change | -2.7 | 0.46 |
| RAB6C | no change | no change | 0.05 | -0.86 |
| C19orf18 | no change | no change | 0.52 | 1.06 |
| AADAC | no change | no change | -0.26 | 1.76 |
| LRFN4 | no change | no change | -0.46 | 3.64 |
| CALHM4 | no change | no change | 0.54 | 0.45 |
| SUSD1 | no change | no change | 0.26 | -0.67 |
| GBE1 | no change | no change | 0.09 | -0.74 |
| PTPRD | no change | no change | 0.11 | 0.24 |
| OR13F1 | no change | no change | 0.05 | 0.24 |
| CLEC18B | no change | no change | 0.27 | 1.07 |
| C2 | no change | no change | -0.5 | 3.2 |
| TBCD | no change | no change | -0.25 | -0.85 |
| AQP2 | no change | no change | -0.77 | -1.07 |
| DTL | no change | no change | -1.07 | 2.68 |
| ABCA13 | no change | no change | 0.2 | -0.44 |
